The values that follow come from publication PMC4728133.

No constants are given. Whether binding was seen depends on the method and setting. In cells and extracts the contact can be indirect.

Substrate in the experiment: C terminal REST peptide (REST^C) (mouse (endogenous in mouse ESC))
The experiment is described as follows: co-IP; nuclear extracts of ESC in IP buffer (150 mM NaCl, 50 mM Tris-HCl pH 7.5, 0.5% Triton X-100, 0.5 mM EDTA, 10% glycerol), DNA and RNA digested with Benzonase, immunoprecipitated overnight at 4°C with rabbit anti-mouse REST antibody, protein G Dynabeads; Western blot. Background: Immunoblotting shows a protein as a band on a membrane.

B1: SIN3A (protein, UniProt Q60520 1-1274)
chain: MKRRLDDQESPVYAAQQRRIPGSTEAFSHQHRVLAPAPPVYEAVSETMQSATGIQYSVAPNYQVSAVPQSSGSHGPAIAAVHSSHHHPTAVQPHGGQVVQSHAHPAPPVAPVQGQQQFQRLKVEDALSYLDQVKLQFGSQPQVYNDFLDIMKEFKSQSIDTPGVISRVSQLFKGHPDLIMGFNTFLPPGYKIEVQTNDMVNVTTPGQVHQIPTHGIQPQPQPPPQHPSQPSSQSAPTPAQPAPQPTAAKVSKPSQLQAHTPASQQTPPLPPYASPRSPPVQPHTPVTISLGTAPSLQNNQPVEFNHAINYVNKIKNRFQGQPDIYKAFLEILHTYQKEQRNAKEAGGNYTPALTEQEVYAQVARLFKNQEDLLSEFGQFLPDANSSVLLSKTTAEKVDSVRNDHGGTVKKPQLNNKPQRPSQNGCQIRRHSGTGATPPVKKKPKLMSLKESSMADASKHGVGTESLFFDKVRKALRSAEAYENFLRCLVIFNQEVISRAELVQLVSPFLGKFPELFNWFKNFLGYKESVHLESFPKERATEGIAMEIDYASCKRLGSSYRALPKSYQQPKCTGRTPLCKEVLNDTWVSFPSWSEDSTFVSSKKTQYEEHIYRCEDERFELDVVLETNLATIRVLEAIQKKLSRLSAEEQAKFRLDNTLGGTSEVIHRKALQRIYADKAADIIDGLRKNPSIAVPIVLKRLKMKEEEWREAQRGFNKVWREQNEKYYLKSLDHQGINFKQNDTKVLRSKSLLNEIESIYDERQEQATEENAGVPVGPHLSLAYEDKQILEDAAALIIHHVKRQTGIQKEDKYKIKQIMHHFIPDLLFAQRGDLSDVEEEEEEEMDVDEATGAPKKHNGVGGSPPKSKLLFSNTAAQKLRGMDEVYNLFYVNNNWYIFMRLHQILCLRLLRICSQAERQIEEENREREWEREVLGIKRDKSDSPAIQLRLKEPMDVDVEDYYPAFLDMVRSLLDGNIDSSQYEDSLREMFTIHAYIAFTMDKLIQSIVRQLQHIVSDEVCVQVTDLYLAENNNGATGGQLNSQTSRSLLESAYQRKAEQLMSDENCFKLMFIQSQGQVQLTVELLDTEEENSDDPVEAERWSDYVERYMSSDTTSPELREHLAQKPVFLPRNLRRIRKCQRGREQQEKEGKEGNSKKTMENVESLDKLECRFKLNSYKMVYVIKSEDYMYRRTALLRAHQSHERVSKRLHQRFQAWVDKWTKEHVPREMAAETSKWLMGEGLEGLVPCTTTCDTETLHFVSINKYRVKYGTVFKAP
On to B1, for which the binding entry is listed as “no binding”.
